{"source": "PubChem BioAssay AID1259267 (Sanger Institute, 2017)", "test": "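Which kinases and bowel-cancer genes GP5D cells need, with or without anchor drugs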 (primary screen)", "cells": "human GP5D colorectal cancer cells", "knock-down reagent": "siRNA pool against human genes", "conditions": "anchor drugs at low dose: BYL719 1 µM, cetuximab 5 µg/ml, trametinib 10 nM, or DMSO vehicle", "measurement": "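Mean replicate viability versus non-targeting pool, given as knock-down-alone robust z-score, DMSO fraction, and synergy with low-dose BYL719, cetuximab or trametinib (1 µM, 5 µg/ml, 10 nM)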", "scale": "robust z-score, knock-down alone and viability with DMSO: higher = more viable cells", "units": "viability with DMSO in fraction of control", "rule for the call": "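Active (essential alone) if knock-down without drug gives robust z-score under -3; drug synergy does not count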", "calls": "active = essential alone; inactive = not essential", "note": "Here is one part, drawn at random, of 794 reagents tested. 9 of all reagents (1.1%) were called active. 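Viability capped at 1; calls reflect loss of viability from knock-down alone, not synergy with drugs.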 A number with no mark means an inactive call. Further read-outs or replicates are left out here. Not stated in the record: the amount of reagent, the time to read-out."}
{"gene symbol":"FER (GeneID 2241)","robust z-score, knock-down alone":0.817,"viability with DMSO":1}
{"gene symbol":"WNK1 (GeneID 65125)","robust z-score, knock-down alone":0.817,"viability with DMSO":1}
{"gene symbol":"IRAK4 (GeneID 51135)","robust z-score, knock-down alone":-0.725,"viability with DMSO":0.673}
{"gene symbol":"PIP4K2B (GeneID 8396)","robust z-score, knock-down alone":0.422,"viability with DMSO":0.916}
{"gene symbol":"PIK3C2B (GeneID 5287)","robust z-score, knock-down alone":0.817,"viability with DMSO":1}
{"gene symbol":"FGFR3 (GeneID 2261)","robust z-score, knock-down alone":0.518,"viability with DMSO":0.937}
{"gene symbol":"PMVK (GeneID 10654)","robust z-score, knock-down alone":0.817,"viability with DMSO":1}
{"gene symbol":"CDK8 (GeneID 1024)","robust z-score, knock-down alone":0.613,"viability with DMSO":0.957}
{"gene symbol":"CAD (GeneID 790)","robust z-score, knock-down alone":0.817,"viability with DMSO":1}
{"gene symbol":"ZC3H11A (GeneID 9877)","robust z-score, knock-down alone":0.558,"viability with DMSO":0.945}
{"gene symbol":"PTGS1 (GeneID 5742)","robust z-score, knock-down alone":-0.3,"viability with DMSO":0.763}
{"gene symbol":"KCNH8 (GeneID 131096)","robust z-score, knock-down alone":0.817,"viability with DMSO":1}
{"gene symbol":"TESK1 (GeneID 7016)","robust z-score, knock-down alone":-0.274,"viability with DMSO":0.769}
{"gene symbol":"PSKH2 (GeneID 85481)","robust z-score, knock-down alone":0.817,"viability with DMSO":1}
{"gene symbol":"SF3B1 (GeneID 23451)","robust z-score, knock-down alone":"-3.08 (active)","viability with DMSO":0.174}
{"gene symbol":"CRKL (GeneID 1399)","robust z-score, knock-down alone":0.817,"viability with DMSO":1}
{"gene symbol":"PBK (GeneID 55872)","robust z-score, knock-down alone":0.438,"viability with DMSO":0.92}
{"gene symbol":"MYLK3 (GeneID 91807)","robust z-score, knock-down alone":-0.178,"viability with DMSO":0.789}

Called active (from the list above):
{"gene symbol":"SF3B1 (GeneID 23451)","robust z-score, knock-down alone":"-3.08 (active)","viability with DMSO":0.174}

Continued:
{"gene symbol":"STK3 (GeneID 6788)","robust z-score, knock-down alone":0.817,"viability with DMSO":1}
{"gene symbol":"NUAK2 (GeneID 81788)","robust z-score, knock-down alone":-0.543,"viability with DMSO":0.712}
{"gene symbol":"ATP23 (GeneID 91419)","robust z-score, knock-down alone":-1.35,"viability with DMSO":0.541}
{"gene symbol":"PAPSS2 (GeneID 9060)","robust z-score, knock-down alone":-1.1,"viability with DMSO":0.593}
{"gene symbol":"CDK1 (GeneID 983)","robust z-score, knock-down alone":0.817,"viability with DMSO":1}
{"gene symbol":"IKBKE (GeneID 9641)","robust z-score, knock-down alone":-1.71,"viability with DMSO":0.465}
{"gene symbol":"SRPK3 (GeneID 26576)","robust z-score, knock-down alone":0.535,"viability with DMSO":0.94}
{"gene symbol":"SPEG (GeneID 10290)","robust z-score, knock-down alone":0.577,"viability with DMSO":0.949}
{"gene symbol":"RELA (GeneID 5970)","robust z-score, knock-down alone":-1.55,"viability with DMSO":0.498}
{"gene symbol":"DGKB (GeneID 1607)","robust z-score, knock-down alone":-0.837,"viability with DMSO":0.649}
